The results in this text go back to the supplement of paper PMC9226226.

The structures appear in SMILES notation. Several values for one entry are separate records, joined by “and”; a condition that tells them apart may be missing. Equal entries are not always repeated. The list shows a part of the results. Some well-known active drugs show little effect in this data set, so a weak value is uncertain.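 Prematurely aging human mesenchymal stem cells without the Werner syndrome gene were monitored by automated live-cell imaging over three biological repeats. The top twenty drugs for increasing growth versus vehicle moved forward; no fixed cutoff was specified.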

The test system of this test is Werner syndrome hMSCs (WRN-/-). The experiment in a line: relative cell density (fold change vs vehicle control); higher = more proliferation (geroprotective). The following applies: concentration (umol/L): 1, 6 days.

Turning to `CN(C)CCn1nnnc1SCC1=C(C(=O)O)N2C(=O)[C@@H](NC(=O)Cc3csc(N)n3)[C@H]2SC1`, the relative cell density (vehicle: DMSO) was found to be 1.09. Still for that read-out and setting: then `CC(=O)O[C@H]1C[C@@]2(C)[C@@H](C[C@@H](O)[C@H]3[C@@]4(C)CC[C@@H](O)[C@@H](C)[C@@H]4CC[C@@]32C)/C1=C(\CCC=C(C)C)C(=O)O`, with 1.26; and `C[C@]1(c2nc3c(C(N)=O)cccc3[nH]2)CCCN1`, with 0.91; and `CC(=O)N[C@@H](CS)C(=O)O`, with 0.939.

Consider `Cc1ccnc(NS(=O)(=O)c2ccc(N)cc2)n1`, for which, where the note is “vehicle: DMSO”, the relative cell density came out at 1.07.

For the setting “vehicle: DMSO”, `CCC[S+]([O-])c1ccc2[nH]c(NC(=O)OC)nc2c1` (stereo not drawn) registered a relative cell density of 0.982. Turning to `NC(=O)OCC(COC(N)=O)c1ccccc1`, the relative cell density (vehicle: DMSO) stood at 0.862. Same read-out and setting: for `COc1ccc(C[C@H](N)C(=O)N[C@H]2[C@@H](O)[C@H](n3cnc4c(N(C)C)ncnc43)O[C@@H]2CO)cc1` the value was 1.22. As for `NCCCC(O)(P(=O)(O)O)P(=O)(O)O`, the relative cell density (vehicle: Water) is 0.954. Consider `CNC[C@H](O)[C@@H](O)[C@H](O)[C@H](O)CO`, for which the relative cell density (vehicle: DMSO) was 1.29.

For `COC(=O)N[C@H](C(=O)N[C@@H](Cc1ccccc1)[C@@H](O)CN(Cc1ccc(-c2ccccn2)cc1)NC(=O)[C@@H](NC(=O)OC)C(C)(C)C)C(C)(C)C`, under “vehicle: DMSO”, the relative cell density was 1.38 and 1.4. `N.N.O=C([O-])C[O-].[Pt+2]`: the relative cell density (vehicle: Water) is 0.541. Under “vehicle: DMSO”, `Cn1cc(C(=O)[C@@H]2CCc3[nH]cnc3C2)c2ccccc21` yielded a relative cell density of 0.94. Same read-out and setting: for `C[C@H](Cn1cnc2c(N)ncnc21)OCP(=O)(O)O` the value was 1.02; for `CCCCNc1cc(C(=O)O)cc(S(N)(=O)=O)c1Oc1ccccc1`, 0.943; for `O=c1ccn([C@@H]2O[C@H](CO)[C@@H](O)[C@H]2O)c(=O)[nH]1`, 1.14. `CC(C)(C)c1ccc(C(=O)CCCN2CCC(OC(c3ccccc3)c3ccccc3)CC2)cc1`: for the setting “vehicle: Water”, the relative cell density was found to be 0.468.

For the compound `CC(C)n1c(/C=C/C(O)CC(O)CC(=O)O)c(-c2ccc(F)cc2)c2ccccc21` (stereo not drawn), the relative cell density (vehicle: DMSO) came out at 0.421. On the same count and under the same terms, then `CC1(C)S[C@@H]2[C@H](NC(=O)C(C(=O)O)c3ccccc3)C(=O)N2[C@H]1C(=O)O` (stereo partly drawn), with 0.991. Under “vehicle: DMSO”, `CC(=O)[C@@]1(O)CC[C@H]2[C@@H]3C[C@H](C)C4=CC(=O)CC[C@]4(C)[C@H]3CC[C@@]21C` came in with a relative cell density of 0.98.

On to `Cc1ccccc1OCC(O)CO` (stereo not drawn), for which the relative cell density (vehicle: DMSO) worked out at 1.31. `O=C1CN(/N=C/c2ccc([N+](=O)[O-])o2)C(=O)N1`: where the note is “vehicle: DMSO”, the relative cell density is 1.09. As for `CC(C)(C)C(=O)C(Oc1ccc(Cl)cc1)n1ccnc1` (stereo not drawn), for the setting “vehicle: DMSO”, the relative cell density came to 0.988. In the case of `CN[C@@H]1[C@@H](O)[C@@H](O[C@@H]2[C@@H](O)[C@H](O[C@H]3OC(CN)=CC[C@H]3N)[C@@H](N)C[C@H]2N)OC[C@]1(C)O`, the relative cell density (vehicle: Water) amounted to 0.587. `Cc1cc(NS(=O)(=O)c2ccc(N)cc2)no1`: the relative cell density (vehicle: DMSO) was 1.35 and 1.42.

Where the note is “vehicle: DMSO”, `CC1(C)S[C@@H]2[C@H](NC(=O)[C@H](C(=O)O)c3ccsc3)C(=O)N2[C@H]1C(=O)O` had a relative cell density of 0.928. Still for that read-out and setting: for `CN[C@H]1C(=O)N[C@@H]2Cc3ccc(cc3)Oc3cc4cc(c3O[C@@H]3O[C@H](C(=O)O)[C@@H](O)[C@H](O)[C@H]3NC(=O)CCCCCCCCC(C)C)Oc3ccc(cc3Cl)[C@@H](O)[C@@H]3NC(=O)[C@H](NC(=O)[C@@H]4NC(=O)[C@@H](NC2=O)c2cc(cc(O)c2Cl)Oc2cc1ccc2O)c1ccc(O)c(c1)-c1c(O[C@H]2O[C@H](CO)[C@@H](O)[C@H](O)[C@@H]2O)cc(O)cc1[C@@H](C(=O)NCCCN(C)C)NC3=O` the value was 1.33; for `CCOC(=O)n1ccn(C)c1=S`, 0.889; for `CC1(O)CCC(C(C)(C)O)CC1` (stereo not drawn), 1.28. The same measure, in the same setting: then `CC(C)OC(=O)CCC/C=C\C[C@@H]1[C@@H](/C=C/[C@@H](O)COc2cccc(C(F)(F)F)c2)[C@H](O)C[C@@H]1O`, with 1.04; and `O=C1CN(/N=C/c2ccc(-c3ccc([N+](=O)[O-])cc3)o2)C(=O)N1`, with 0.774; and `CC1(C)O[C@@H]2C[C@H]3[C@@H]4CCC5=CC(=O)C=C[C@]5(C)[C@H]4[C@@H](O)C[C@]3(C)[C@]2(C(=O)CO)O1`, with 1.22. Compound `O=C(O)c1ccc2c(c1)nc(Nc1cccc(Cl)c1)c1ccncc12` gave a relative cell density (vehicle: DMSO) of 1.01. Still for that read-out and setting: then `CCNC(=O)CCC/C=C\C[C@@H]1[C@@H](/C=C/[C@@H](O)CCc2ccccc2)[C@H](O)C[C@@H]1O`, with 1; and `COC(=O)C1=C(C)NC(C)=C(C(=O)OC2CCCN(Cc3ccccc3)C2)C1c1cccc([N+](=O)[O-])c1` (stereo not drawn), with 1.24. Regarding `NC[C@H]1O[C@H](O[C@H]2[C@H](O)[C@@H](O[C@H]3O[C@H](CO)[C@@H](O)[C@H](N)[C@H]3O)[C@H](N)C[C@@H]2N)[C@H](O)[C@@H](O)[C@@H]1O`, the relative cell density (vehicle: Water) amounted to 0.641. With `C[C@H](Oc1ccc(S(C)(=O)=O)cc1C(=O)N1CCN(c2ncc(C(F)(F)F)cc2F)CC1)C(F)(F)F`, the relative cell density (vehicle: DMSO) amounted to 0.834.

The compound `O=C(CCCCCCC(=O)Nc1ccccc1)NO` returned a relative cell density (vehicle: DMSO) of 0.325. Consider `Nc1c2c(nc3ccccc13)CCCC2`, for which the relative cell density (vehicle: DMSO) was 1.04. Compound `CCCCC(CC)COC(=O)C(C#N)=C(c1ccccc1)c1ccccc1` (stereo not drawn) returned a relative cell density (vehicle: DMSO) of 0.969.

For `O=c1sn(-c2cccc3ccccc23)c(=O)n1Cc1ccccc1`, the relative cell density (vehicle: DMSO) stood at 1.01. Regarding `COc1cc2/c(=N/c3ccc(Br)cc3F)nc[nH]c2cc1OCC1CCN(C)CC1`, the relative cell density (vehicle: Water) came out at 0.185. Take `CCN(CC)C(=S)SSC(=S)N(CC)CC`: the relative cell density (vehicle: DMSO) worked out at 0.211. Still for that read-out and setting: then `CCOc1cc(CC(=O)N[C@@H](CC(C)C)c2ccccc2N2CCCCC2)ccc1C(=O)O`, with 1.29; and `CCOC(=O)C1=C(C)NC(C)=C(C(=O)OCC)C1c1ccccc1/C=C/C(=O)OC(C)(C)C`, with 1.35. Same read-out and setting: for `CCc1ccc(Cc2ccc3c(c2)[C@]2(OC3)O[C@H](CO)[C@@H](O)[C@H](O)[C@H]2O)cc1` the value was 0.896; for `C#C[C@]1(O)CC[C@H]2[C@@H]3CCc4cc(O)ccc4[C@H]3CC[C@@]21C`, 0.998. Turning to `CN[C@@H]1[C@@H](O)[C@@H](O[C@@H]2[C@@H](O)[C@H](O[C@H]3O[C@H](CN)[C@@H](O)[C@H](O)[C@H]3O)[C@@H](N)C[C@H]2NC(=O)[C@@H](O)CN)OC[C@]1(C)O`, the relative cell density (vehicle: Water) came out at 1.46. Compound `CS(=O)(=O)N1CCN(Cc2cc3nc(-c4cccc5[nH]ncc45)nc(N4CCOCC4)c3s2)CC1` displayed a relative cell density (vehicle: DMSO) of 0.631. Same read-out and setting: for `CC(C)NCC(O)c1ccc(O)c(O)c1` (stereo not drawn) the value was 1.14. Same read-out and setting: then `COc1ccc2[nH]c([S@@+]([O-])Cc3ncc(C)c(OC)c3C)nc2c1`, with 0.974 and 1.2.

Consider `Nc1nc2c(ncn2COCCO)c(=O)[nH]1`, for which the relative cell density (vehicle: DMSO) worked out at 1.

In the case of `COc1ccc(C(=O)CC(=O)c2ccc(C(C)(C)C)cc2)cc1`, for the setting “vehicle: DMSO”, the relative cell density worked out at 1.21.
